PubChem BioAssay AID1671195 | Yale University – 2021
Purpose: 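Regulators of LDL receptor activity judged by labelled LDL uptake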 (primary screen). Cell system: human Huh7 hepatoma cells. Knock-down reagent: siRNA pool against human genes, 18 nM. Timing: about 2 to 2.5 days of knockdown, then 8 h LDL uptake. Challenge: DiI-labelled LDL at 30 µg/ml for 8 h, in lipoprotein-deficient serum medium. Measured: 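Fluorescent LDL signal imaged in cells, scaled to the plate median, robust z-score for each replicate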. Reading the numbers: robust z-score: higher = more LDL uptake after knockdown. Active means: 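a gene counts as active if at least two replicate z-scores exceed ±2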.
The whole screen tested about 22,000 reagents; this is a random part of them. About 1,510 of all reagents (6.9%) were called active. 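Active includes knockdowns raising or lowering LDL uptake; positive z-scores mean more uptake, negative mean less.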 A number with no mark means an inactive call.

SGCZ — robust z-score, replicate 1 = -1.1; robust z-score, replicate 2 = -0.0483; robust z-score, replicate 3 = -0.131
RRP1B — robust z-score, replicate 1 = -1.24; robust z-score, replicate 2 = -1.71; robust z-score, replicate 3 = -1.07
RPS4X — robust z-score, replicate 1 = -1.21; robust z-score, replicate 2 = -0.534; robust z-score, replicate 3 = 0.367
TRIM63 — robust z-score, replicate 1 = -0.21; robust z-score, replicate 2 = 0.948; robust z-score, replicate 3 = 1.01
NPM3 — robust z-score, replicate 1 = -1.55; robust z-score, replicate 2 = -1.7; robust z-score, replicate 3 = -1.73
COQ5 — robust z-score, replicate 1 = -0.613; robust z-score, replicate 2 = -1.04; robust z-score, replicate 3 = -0.416
LINC01144 — robust z-score, replicate 1 = -0.138; robust z-score, replicate 2 = -0.03; robust z-score, replicate 3 = -0.101
TEKT3 — robust z-score, replicate 1 = -2.07 (active); robust z-score, replicate 2 = -2.07; robust z-score, replicate 3 = -1.42
STYXL2 — robust z-score, replicate 1 = -1.02; robust z-score, replicate 2 = -0.719; robust z-score, replicate 3 = -0.942
MOV10 — robust z-score, replicate 1 = -0.995; robust z-score, replicate 2 = -0.472; robust z-score, replicate 3 = -0.792
CLDN18 — robust z-score, replicate 1 = 1.56; robust z-score, replicate 2 = 2.08; robust z-score, replicate 3 = 1.73
DSCAML1 — robust z-score, replicate 1 = -0.46; robust z-score, replicate 2 = 1.24; robust z-score, replicate 3 = 1.08
MYCL — robust z-score, replicate 1 = -1.23; robust z-score, replicate 2 = -1.33; robust z-score, replicate 3 = -0.767
TSSK3 — robust z-score, replicate 1 = 0.497; robust z-score, replicate 2 = -0.0326; robust z-score, replicate 3 = 0.0291
NCOA3 — robust z-score, replicate 1 = 1.61; robust z-score, replicate 2 = 0.918; robust z-score, replicate 3 = 2.48
SCAMP5 — robust z-score, replicate 1 = -0.0397; robust z-score, replicate 2 = 0.135; robust z-score, replicate 3 = -0.226
SH3BGRL — robust z-score, replicate 1 = 0.991; robust z-score, replicate 2 = -0.492; robust z-score, replicate 3 = -0.187
PIGZ — robust z-score, replicate 1 = 2.07 (active); robust z-score, replicate 2 = 2.96; robust z-score, replicate 3 = 3.01
HOOK3 — robust z-score, replicate 1 = 2.62 (active); robust z-score, replicate 2 = 3.26; robust z-score, replicate 3 = 3.77
NOM1 — robust z-score, replicate 1 = -0.63; robust z-score, replicate 2 = -1.26; robust z-score, replicate 3 = -0.382
LOC400785 (retired record) — robust z-score, replicate 1 = -1.46; robust z-score, replicate 2 = -1.43; robust z-score, replicate 3 = -0.938
RPSAP48 — robust z-score, replicate 1 = -0.6; robust z-score, replicate 2 = -0.572; robust z-score, replicate 3 = -0.508
SLC66A1 — robust z-score, replicate 1 = 1.9; robust z-score, replicate 2 = 1.46; robust z-score, replicate 3 = 1.74
WARS2 — robust z-score, replicate 1 = 1.74; robust z-score, replicate 2 = 1.9; robust z-score, replicate 3 = 3.01
TIPRL — robust z-score, replicate 1 = -0.466; robust z-score, replicate 2 = -0.518; robust z-score, replicate 3 = -0.468
COLGALT2 — robust z-score, replicate 1 = 0.406; robust z-score, replicate 2 = 0.0804; robust z-score, replicate 3 = 1.41
DNMT3L — robust z-score, replicate 1 = 0.378; robust z-score, replicate 2 = -0.0441; robust z-score, replicate 3 = 0.118
TREML1 — robust z-score, replicate 1 = -1.13; robust z-score, replicate 2 = -0.896; robust z-score, replicate 3 = -1.1
PTMS — robust z-score, replicate 1 = -0.813; robust z-score, replicate 2 = -0.765; robust z-score, replicate 3 = -0.809
LOC401165 (retired record) — robust z-score, replicate 1 = -0.0192; robust z-score, replicate 2 = -0.307; robust z-score, replicate 3 = 0.399
